The results are deposited in PubChem (AID2284068; EPA ToxCast, 2025).

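Primary rat cortical neurons cultured on multi-electrode plates for twelve days with re-dosing; lactate dehydrogenase enzyme activity is read by light absorbance as a cytotoxicity measure.
Each compound was tested over a concentration series, whose values are not listed.
The number is the AC50 from the fitted concentration-response curve; a lower value means a more potent effect.
Calls come from a continuous hit score: 0.9 or above is active, 0 to below 0.9 is inactive, and a negative score (response in the unintended direction) is inconclusive.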

Values are in µM.
All entries here are filed as inconclusive.
These entries are mostly ones the record files as inconclusive; other results of the assay are not listed here.
Activity scores are not listed here.

| SMILES | AC50 (µM) |
|---|---|
| `CSC(=O)c1cccc2nnsc12` | 0.1056 |
| `CN1CCC[C@H]1c1cccnc1` | 15 |
| `CC[C@H]1OC(=O)[C@H](C)[C@@H](O[C@H]2C[C@@](C)(OC)[C@@H](O)[C@H](C)O2)[C@H](C)[C@@H](O[C@@H]2O[C@H](C)C[C@H](N(C)C)[C@H]2O)[C@](C)(O)C[C@@H](C)C(=O)[C@H](C)[C@@H](O)[C@]1(C)O` | 2.5 |
| `CCOC(F)(F)C(F)(F)C(F)(F)C(F)(F)F` | 0.17 |
| `O=S(=O)(OCCOC(F)(F)F)C(F)(F)F` | 0.08554 |
| `FC(F)OCC(F)(F)C(F)(F)F` | 2.195 |
| `C[N+]1(C)CCCCC1` | 0.1531 |
| `CCC(C)(c1ccc(O)cc1)c1ccc(O)cc1` | 0.153 |
| `CCN(CC)C(=O)c1cccc(C)c1` | 1.268 |
| `CC(O)C(F)(F)C(F)(F)F` (configuration not stated) | 15 |
| `NC(=O)NO` | 0.7063 |
| `C#CCOC(=O)[C@@H](C)Oc1ccc(Oc2ncc(Cl)cc2F)cc1` | 0.1117 |
| `C=CCOC(F)(C(F)(F)F)C(F)(F)F` | 4.157 |
| `O=C(O)C(F)(F)OC(F)(F)C(F)(F)OC(F)(F)C(=O)O` | 15 |
| `Cc1cc(=O)[nH]c(=S)[nH]1` | 0.03674 |
| `CC1(C)C(C=C(Cl)Cl)C1C(=O)OC(C#N)c1ccc(F)c(Oc2ccccc2)c1` (configuration not stated) | 0.5416 |
| `CC1(C)C(C=C(Cl)Cl)C1C(=O)OC(C#N)c1cccc(Oc2ccccc2)c1` (configuration not stated) | 3.52 |
| `O=S(=O)(F)C(F)(F)C(F)(F)C(F)(F)C(F)(F)F` | 3.611 |
| `COC(F)(F)C(F)(C(F)(F)F)C(F)(F)F` | 15 |
| `C[Si]1(C)O[Si](C)(C)O[Si](C)(C)O[Si](C)(C)O1` | 3.5 |

2 of the entries, repeated:

For CC1(C)C(C=C(Cl)Cl)C1C(=O)OC(C#N)c1ccc(F)c(Oc2ccccc2)c1 (configuration not stated) the result was AC50 0.5416 µM.
For C[Si]1(C)O[Si](C)(C)O[Si](C)(C)O[Si](C)(C)O1 the result was AC50 3.5 µM.